From the supplement of paper PMC10849652
Some of the results follow.

The chains behind the UniProt entries cited, without tags or fusion partners. Where a name states a change or a piece, a line headed by the entry shows the natural chain unless it says otherwise.
UniProt Q9BRJ6: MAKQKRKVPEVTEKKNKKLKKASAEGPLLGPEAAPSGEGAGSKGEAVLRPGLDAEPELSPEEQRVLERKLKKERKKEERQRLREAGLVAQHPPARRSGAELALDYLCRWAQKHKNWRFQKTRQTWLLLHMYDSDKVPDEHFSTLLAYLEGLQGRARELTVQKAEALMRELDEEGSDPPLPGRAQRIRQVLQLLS
UniProt Q7Z6I8: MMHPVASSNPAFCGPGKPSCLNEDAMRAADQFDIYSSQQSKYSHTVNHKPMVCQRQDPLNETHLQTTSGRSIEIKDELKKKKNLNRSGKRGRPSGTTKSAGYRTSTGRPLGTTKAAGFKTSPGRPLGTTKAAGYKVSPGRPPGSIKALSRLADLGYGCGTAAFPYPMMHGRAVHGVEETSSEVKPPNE
UniProt Q9P1Z2: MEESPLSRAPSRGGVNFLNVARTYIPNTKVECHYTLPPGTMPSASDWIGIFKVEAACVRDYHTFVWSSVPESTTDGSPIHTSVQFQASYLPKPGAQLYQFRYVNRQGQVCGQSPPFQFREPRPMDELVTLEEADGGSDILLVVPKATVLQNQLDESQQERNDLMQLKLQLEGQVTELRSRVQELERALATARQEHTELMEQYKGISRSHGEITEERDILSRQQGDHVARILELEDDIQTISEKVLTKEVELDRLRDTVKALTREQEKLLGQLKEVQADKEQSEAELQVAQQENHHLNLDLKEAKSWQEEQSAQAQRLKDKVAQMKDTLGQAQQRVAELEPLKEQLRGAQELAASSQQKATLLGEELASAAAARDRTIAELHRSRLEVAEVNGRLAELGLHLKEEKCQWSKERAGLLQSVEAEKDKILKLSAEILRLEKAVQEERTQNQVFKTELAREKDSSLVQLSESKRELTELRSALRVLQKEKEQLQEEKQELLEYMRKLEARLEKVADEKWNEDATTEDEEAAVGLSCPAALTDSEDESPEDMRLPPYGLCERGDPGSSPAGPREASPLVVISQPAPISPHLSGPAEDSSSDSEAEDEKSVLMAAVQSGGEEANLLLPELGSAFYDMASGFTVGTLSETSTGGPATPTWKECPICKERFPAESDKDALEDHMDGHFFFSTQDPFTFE
UniProt Q01518, whole entry, looked up: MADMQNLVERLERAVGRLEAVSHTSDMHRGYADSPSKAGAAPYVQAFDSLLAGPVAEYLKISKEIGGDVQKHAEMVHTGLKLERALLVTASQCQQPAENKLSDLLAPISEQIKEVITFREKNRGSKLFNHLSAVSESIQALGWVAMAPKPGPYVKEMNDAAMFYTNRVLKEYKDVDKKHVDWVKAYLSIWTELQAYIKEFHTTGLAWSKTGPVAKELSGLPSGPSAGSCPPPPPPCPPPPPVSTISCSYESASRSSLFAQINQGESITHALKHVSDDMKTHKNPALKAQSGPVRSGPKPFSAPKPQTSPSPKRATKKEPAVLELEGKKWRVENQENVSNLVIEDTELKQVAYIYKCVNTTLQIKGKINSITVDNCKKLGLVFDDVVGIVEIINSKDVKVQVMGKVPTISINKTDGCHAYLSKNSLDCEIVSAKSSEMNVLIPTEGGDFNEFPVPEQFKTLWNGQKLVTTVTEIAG
UniProt Q9H7E9: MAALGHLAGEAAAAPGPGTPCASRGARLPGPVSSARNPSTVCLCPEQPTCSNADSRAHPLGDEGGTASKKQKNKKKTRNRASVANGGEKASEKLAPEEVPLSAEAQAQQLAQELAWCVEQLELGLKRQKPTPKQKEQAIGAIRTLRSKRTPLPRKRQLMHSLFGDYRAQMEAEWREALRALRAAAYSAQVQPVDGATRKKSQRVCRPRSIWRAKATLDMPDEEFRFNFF
UniProt Q9NSG2: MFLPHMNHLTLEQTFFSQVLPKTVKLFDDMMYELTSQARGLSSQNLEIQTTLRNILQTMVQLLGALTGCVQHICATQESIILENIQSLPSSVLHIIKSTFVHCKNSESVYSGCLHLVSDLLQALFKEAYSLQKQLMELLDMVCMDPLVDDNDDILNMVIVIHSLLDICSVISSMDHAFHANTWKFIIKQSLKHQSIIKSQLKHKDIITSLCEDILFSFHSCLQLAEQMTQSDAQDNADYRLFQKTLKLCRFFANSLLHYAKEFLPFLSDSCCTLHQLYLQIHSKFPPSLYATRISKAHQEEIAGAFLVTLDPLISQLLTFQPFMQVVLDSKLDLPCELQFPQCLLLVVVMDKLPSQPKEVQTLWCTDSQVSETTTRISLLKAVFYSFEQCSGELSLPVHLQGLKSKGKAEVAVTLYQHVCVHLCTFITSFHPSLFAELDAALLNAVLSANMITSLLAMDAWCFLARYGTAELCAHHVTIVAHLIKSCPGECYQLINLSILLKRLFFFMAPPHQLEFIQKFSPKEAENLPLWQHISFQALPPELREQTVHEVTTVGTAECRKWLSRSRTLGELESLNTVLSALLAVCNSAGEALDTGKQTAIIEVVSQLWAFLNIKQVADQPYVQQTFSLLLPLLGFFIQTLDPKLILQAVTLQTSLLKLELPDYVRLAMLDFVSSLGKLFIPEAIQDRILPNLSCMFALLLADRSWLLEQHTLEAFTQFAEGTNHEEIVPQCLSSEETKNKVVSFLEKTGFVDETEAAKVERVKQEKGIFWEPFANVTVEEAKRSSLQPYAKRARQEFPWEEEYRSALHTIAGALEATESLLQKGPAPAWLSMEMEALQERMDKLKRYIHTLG
UniProt Q9Y6J0: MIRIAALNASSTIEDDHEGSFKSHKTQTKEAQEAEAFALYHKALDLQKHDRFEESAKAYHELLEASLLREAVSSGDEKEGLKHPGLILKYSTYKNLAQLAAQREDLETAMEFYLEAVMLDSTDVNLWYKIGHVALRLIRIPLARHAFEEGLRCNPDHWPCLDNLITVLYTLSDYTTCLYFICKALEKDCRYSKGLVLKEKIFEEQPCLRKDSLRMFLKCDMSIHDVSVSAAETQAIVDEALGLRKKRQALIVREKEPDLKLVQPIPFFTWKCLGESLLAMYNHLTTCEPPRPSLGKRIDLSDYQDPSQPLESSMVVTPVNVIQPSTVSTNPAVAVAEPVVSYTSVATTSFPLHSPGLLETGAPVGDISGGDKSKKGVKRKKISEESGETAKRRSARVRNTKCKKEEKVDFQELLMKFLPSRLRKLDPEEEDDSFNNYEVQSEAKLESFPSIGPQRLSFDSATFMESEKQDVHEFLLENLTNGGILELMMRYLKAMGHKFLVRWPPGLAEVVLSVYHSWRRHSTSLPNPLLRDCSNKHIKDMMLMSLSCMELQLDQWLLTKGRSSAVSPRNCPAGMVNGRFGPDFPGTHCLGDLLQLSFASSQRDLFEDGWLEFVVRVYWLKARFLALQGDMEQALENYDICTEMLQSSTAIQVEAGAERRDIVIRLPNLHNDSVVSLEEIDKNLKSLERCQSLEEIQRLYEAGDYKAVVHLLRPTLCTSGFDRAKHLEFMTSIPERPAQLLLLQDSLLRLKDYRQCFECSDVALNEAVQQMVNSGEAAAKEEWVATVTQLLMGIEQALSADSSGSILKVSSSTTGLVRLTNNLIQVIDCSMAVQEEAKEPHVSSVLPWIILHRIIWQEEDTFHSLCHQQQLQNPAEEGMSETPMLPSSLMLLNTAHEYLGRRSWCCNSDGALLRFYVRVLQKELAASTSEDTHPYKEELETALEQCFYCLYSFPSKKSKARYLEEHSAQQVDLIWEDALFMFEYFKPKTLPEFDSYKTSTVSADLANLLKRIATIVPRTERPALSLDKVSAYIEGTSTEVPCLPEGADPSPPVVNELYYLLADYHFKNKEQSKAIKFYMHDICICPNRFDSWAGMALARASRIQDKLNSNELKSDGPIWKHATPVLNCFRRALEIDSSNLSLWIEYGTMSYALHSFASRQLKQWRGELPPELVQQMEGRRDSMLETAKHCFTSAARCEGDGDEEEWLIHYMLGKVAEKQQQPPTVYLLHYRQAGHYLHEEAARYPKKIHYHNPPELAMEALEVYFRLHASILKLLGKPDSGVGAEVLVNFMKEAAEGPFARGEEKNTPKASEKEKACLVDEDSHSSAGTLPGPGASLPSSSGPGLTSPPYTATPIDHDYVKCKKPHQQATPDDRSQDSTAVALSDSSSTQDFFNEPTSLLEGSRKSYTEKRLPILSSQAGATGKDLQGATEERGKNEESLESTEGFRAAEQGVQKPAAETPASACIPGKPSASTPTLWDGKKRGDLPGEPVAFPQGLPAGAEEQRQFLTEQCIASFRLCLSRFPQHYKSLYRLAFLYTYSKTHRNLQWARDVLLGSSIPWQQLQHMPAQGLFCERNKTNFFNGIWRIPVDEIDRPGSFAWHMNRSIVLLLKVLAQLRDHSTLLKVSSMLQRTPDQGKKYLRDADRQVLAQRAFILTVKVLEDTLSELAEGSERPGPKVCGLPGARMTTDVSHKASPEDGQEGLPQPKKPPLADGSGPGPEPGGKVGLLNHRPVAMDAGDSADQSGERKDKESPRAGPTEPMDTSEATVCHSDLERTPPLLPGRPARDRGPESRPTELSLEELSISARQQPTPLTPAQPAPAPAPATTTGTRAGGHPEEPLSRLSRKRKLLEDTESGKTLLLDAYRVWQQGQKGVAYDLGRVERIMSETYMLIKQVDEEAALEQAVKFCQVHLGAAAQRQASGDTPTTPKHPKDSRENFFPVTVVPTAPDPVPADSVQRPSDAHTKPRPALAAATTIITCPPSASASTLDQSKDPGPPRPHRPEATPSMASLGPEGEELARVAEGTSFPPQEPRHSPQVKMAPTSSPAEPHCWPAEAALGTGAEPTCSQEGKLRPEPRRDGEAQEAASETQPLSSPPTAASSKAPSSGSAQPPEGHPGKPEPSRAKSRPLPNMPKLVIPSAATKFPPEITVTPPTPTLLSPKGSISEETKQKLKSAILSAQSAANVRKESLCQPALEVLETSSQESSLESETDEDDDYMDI
UniProt Q9BX69: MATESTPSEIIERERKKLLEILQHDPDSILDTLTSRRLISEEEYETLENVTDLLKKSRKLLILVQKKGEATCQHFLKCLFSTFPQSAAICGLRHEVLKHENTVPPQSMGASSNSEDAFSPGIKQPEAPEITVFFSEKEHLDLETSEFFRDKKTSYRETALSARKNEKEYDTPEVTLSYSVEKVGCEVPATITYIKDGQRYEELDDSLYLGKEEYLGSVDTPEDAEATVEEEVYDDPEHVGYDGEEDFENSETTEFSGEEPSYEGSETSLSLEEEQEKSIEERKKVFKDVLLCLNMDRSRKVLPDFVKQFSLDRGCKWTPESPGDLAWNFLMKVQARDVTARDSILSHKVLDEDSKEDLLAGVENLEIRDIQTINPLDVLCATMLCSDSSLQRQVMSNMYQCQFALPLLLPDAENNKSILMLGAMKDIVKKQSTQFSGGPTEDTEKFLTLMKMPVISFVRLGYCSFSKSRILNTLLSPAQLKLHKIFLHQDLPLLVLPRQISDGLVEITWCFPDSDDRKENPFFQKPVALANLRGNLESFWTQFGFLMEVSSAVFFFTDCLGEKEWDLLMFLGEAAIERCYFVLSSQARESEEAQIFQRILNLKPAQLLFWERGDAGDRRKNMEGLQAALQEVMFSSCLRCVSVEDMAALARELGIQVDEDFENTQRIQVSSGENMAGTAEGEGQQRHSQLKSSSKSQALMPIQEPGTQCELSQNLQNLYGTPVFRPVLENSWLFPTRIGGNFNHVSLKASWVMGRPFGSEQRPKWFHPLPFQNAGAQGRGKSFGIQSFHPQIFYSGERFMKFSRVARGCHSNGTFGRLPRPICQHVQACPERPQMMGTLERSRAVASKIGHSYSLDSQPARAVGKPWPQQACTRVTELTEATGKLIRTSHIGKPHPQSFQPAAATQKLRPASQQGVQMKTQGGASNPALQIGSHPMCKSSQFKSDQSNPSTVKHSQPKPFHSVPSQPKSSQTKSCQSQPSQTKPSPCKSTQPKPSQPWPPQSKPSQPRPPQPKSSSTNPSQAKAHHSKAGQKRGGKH
UniProt Q96LW7: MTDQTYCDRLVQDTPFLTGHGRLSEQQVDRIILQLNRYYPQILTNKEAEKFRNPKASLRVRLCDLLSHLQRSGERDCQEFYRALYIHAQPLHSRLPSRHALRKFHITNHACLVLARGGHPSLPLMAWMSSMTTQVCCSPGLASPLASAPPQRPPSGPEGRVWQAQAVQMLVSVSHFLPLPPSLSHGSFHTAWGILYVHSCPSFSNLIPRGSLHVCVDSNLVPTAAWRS
UniProt Q16581: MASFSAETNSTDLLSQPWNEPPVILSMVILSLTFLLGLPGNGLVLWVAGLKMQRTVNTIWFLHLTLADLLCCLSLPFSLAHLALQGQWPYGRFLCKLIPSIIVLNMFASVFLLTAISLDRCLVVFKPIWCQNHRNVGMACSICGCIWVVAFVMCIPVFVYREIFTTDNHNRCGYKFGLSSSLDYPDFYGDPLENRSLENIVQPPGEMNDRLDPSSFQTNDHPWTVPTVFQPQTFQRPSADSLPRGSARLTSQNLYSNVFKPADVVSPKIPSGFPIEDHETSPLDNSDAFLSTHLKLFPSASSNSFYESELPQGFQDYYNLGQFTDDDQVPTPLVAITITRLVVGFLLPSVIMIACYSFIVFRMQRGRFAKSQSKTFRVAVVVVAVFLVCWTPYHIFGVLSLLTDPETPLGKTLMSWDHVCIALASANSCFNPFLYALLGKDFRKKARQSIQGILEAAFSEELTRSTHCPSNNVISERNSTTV

Assays:
Assay in all cases: log2 fold change, soluble protein after heating vs DMSO (PISA); higher = thermal stabilisation; K562 cells, 10 uM, 30 min; active = over 0.2 and 3.5 SD of the protein, either way, in both replicates (recomputed)
erlotinib = compound: C#Cc1cccc(Nc2ncnc3cc(OCCOC)c(OCCOC)cc23)c1 [erlotinib]
Summary of the method: (§1)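 Soluble protein was defined as the supernatant after 21,000xg for 90 min. It came from K562 cells at 2×10^6 cells/mL given 10 μM compound for 30 min, heated in aliquots for 3 min across 48°C-58°C, pooled, and extracted in PBS with 0.5% NP-40 at 4°C, and was quantified by TMTpro 16plex LC-MS/MS with equalised channel sums. Thermal stability against control samples, from duplicates, is reported as log2 fold change.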

[1] = compound: C1=CC(=CC=C1C2=NC3=C(N2)C=C(C=C3)C(=O)N)OC4=CC=C(C=C4)Cl
Summary of the method: as §1

[2] = compound: C1=CC2=NC=CN=C2C=C1/C=C/3\C(=O)NC(=O)S3
Summary of the method: as §1

[3] = compound: C/C(=N\NC(=O)C1=CC(=CC=C1)S(=O)(=O)N2CCOCC2)/C3=C(C=CC(=C3)Cl)O
Summary of the method: as §1

[4] = compound: C1=CC2=C(C=CC(=C2)/C=C\3/C(=O)NC(=NCC4=CC=CS4)S3)N=C1
Summary of the method: as §1

[5] = compound: C1=CC=C(C=C1)C2=NC(=C(N2)C3=CC=NC=C3)C4=CC(=C(C=C4)Cl)O
Summary of the method: as §1

[6] = compound: C1=CC=C2C(=C1)C3=NNC4=CC=CC(=C43)C2=O
Summary of the method: as §1

[7] = compound: C1CCN(C1)C(=O)NC2=CC=CC(=C2)NC3=NC=C(C(=N3)NCCC4=CN=CN4)Br
Summary of the method: as §1

[8] = compound: C1CN(CCC1(CC2=CC=C(C=C2)Cl)N)C3=NC=NC4=C3C=CN4
Summary of the method: as §1

[9] = compound: C1=CC(=C(C=C1Cl)C2=NC3=NC=CN=C3C(=N2)NC4=CC=NC=C4)F
Summary of the method: as §1

Measured: log2 fold change

CAPN1 (UniProt E9PLX0)
inactive: erlotinib 0.115 | [1] 0.005 | [2] -0.069

C7orf50 (UniProt Q9BRJ6)
inactive: [3] -0.119 | [4] -0.029 | [5] 0.023 | [6] 0.037 | [7] 0.06 | [8] 0.065

C5 (UniProt P01031)
inactive: [9] 0.024 | [7] 0.048 | [8] 0.187

BTD isoform 3 (UniProt P43251)
inactive: erlotinib 0.02 | [9] 0.065 | [1] 0.018 | [2] 0.046 | [5] -0.021 | [7] 0.066 | [8] 0.062

C6orf120 (UniProt Q7Z4R8)
inactive: erlotinib -0.2 | [1] 0.134 | [2] -0.003 | [5] -0.009 | [7] 0.005 | [8] 0.028

C5orf24 (UniProt Q7Z6I8)
inactive: [9] -0.605 | [7] -0.187 | [8] 0.228

CALCOCO1 (UniProt Q9P1Z2)
inactive: erlotinib 0.026 | [9] 0.009 | [1] 0.001 | [2] 0.119 | [5] 0.061 | [7] 0.131 | [8] 0.076

CAP1 isoform 2 (UniProt Q01518)
inactive: [2] 0.226

C19orf12 (UniProt Q9NSK7)
inactive: [3] 0.242 | [9] -0.098 | [4] 0 | [2] 0.089 | [6] -0.028 | [7] -0.032 | [8] -0.052

CA1 (UniProt E5RIF9)
inactive: [9] 0.096 | [2] 0.135 | [7] 0.014 | [8] -0.453

C8orf33 isoform 2 (UniProt Q9H7E9)
inactive: [3] -0.185 | [9] -0.488 | [4] -0.408 | [2] -0.112 | [5] 0.252 | [6] -0.037 | [7] 0.079 | [8] -0.191

BSN (UniProt Q9UPA5)
inactive: [3] 0.063 | [4] -0.022 | [6] -0.017

CALD1 (UniProt Q05682)
inactive: erlotinib -0.224 | [9] 0.085 | [1] 0.2 | [5] 0.073

C8orf37 (UniProt Q96NL8)
inactive: erlotinib 0.008 | [9] 0.268 | [1] -0.091 | [7] -0.008 | [8] -0.043

CAD (UniProt H7BZB3)
inactive: [3] -0.061 | [4] 0.242 | [6] -0.058

CALM1 (UniProt G3V361)
inactive: erlotinib 0.024 | [1] -0.107

C1orf112 (UniProt Q9NSG2)
inactive: [3] -0.14 | [4] 0.106 | [6] 0.005 | [7] -0.005 | [8] 0.164

CAMK1 (UniProt Q14012)
inactive: [2] 0.125 | [5] -0.165

CABIN1 (UniProt Q9Y6J0)
inactive: erlotinib -0.006 | [1] -0.16

C12orf60 (UniProt Q5U649)
inactive: erlotinib -0.017 | [9] -0.248 | [1] -0.125 | [2] 0.261 | [7] -0.062 | [8] -0.141

C9 (UniProt P02748)
inactive: [9] -0.101 | [5] -0.134 | [7] 0.077 | [8] 0.081

C16orf70 (UniProt Q9BSU1)
inactive: [3] -0.189 | [9] 0.25 | [4] 0.313 | [6] 0.058

Reprinted from the listing (8 entries):
C7orf50 (UniProt Q9BRJ6)
inactive: [3] -0.119 | [4] -0.029 | [5] 0.023 | [6] 0.037 | [7] 0.06 | [8] 0.065

C5 (UniProt P01031)
inactive: [9] 0.024 | [7] 0.048 | [8] 0.187

BTD isoform 3 (UniProt P43251)
inactive: erlotinib 0.02 | [9] 0.065 | [1] 0.018 | [2] 0.046 | [5] -0.021 | [7] 0.066 | [8] 0.062

C6orf120 (UniProt Q7Z4R8)
inactive: erlotinib -0.2 | [1] 0.134 | [2] -0.003 | [5] -0.009 | [7] 0.005 | [8] 0.028

C5orf24 (UniProt Q7Z6I8)
inactive: [9] -0.605 | [7] -0.187 | [8] 0.228

CALCOCO1 (UniProt Q9P1Z2)
inactive: erlotinib 0.026 | [9] 0.009 | [1] 0.001 | [2] 0.119 | [5] 0.061 | [7] 0.131 | [8] 0.076

CAP1 isoform 2 (UniProt Q01518)
inactive: [2] 0.226

C19orf12 (UniProt Q9NSK7)
inactive: [3] 0.242 | [9] -0.098 | [4] 0 | [2] 0.089 | [6] -0.028 | [7] -0.032 | [8] -0.052

Following part:

C7orf26 (UniProt Q96N11)
inactive: erlotinib -0.123 | [9] 0.04 | [1] 0.267 | [2] 0.337 | [5] 0.138

C16orf87 (UniProt Q6PH81)
inactive: [9] 0.189 | [2] 0.067

CARD6 (UniProt Q9BX69)
inactive: [5] -0.332

C11orf74 (UniProt Q86VG3)
inactive: erlotinib 0.112 | [9] -0.01 | [1] 0.143 | [7] -0.064 | [8] -0.001

CARD19 isoform 2 (UniProt Q96LW7)
inactive: [3] -0.07 | [9] -0.053 | [4] 0 | [2] -0.035 | [5] -0.01 | [6] 0.031 | [7] -0.153 | [8] -0.025

CALML3 (UniProt P27482)
inactive: [3] 0.282 | [9] 0.184 | [4] 0.218 | [6] -0.288 | [7] -0.431 | [8] -0.248

CARD11 (UniProt Q9BXL7)
inactive: [3] -0.125 | [9] -0.208 | [4] 0.26 | [6] -0.052

CAPNS2 (UniProt Q96L46)
inactive: [5] -0.009

C11orf96 (UniProt Q7Z7L8)
inactive: [9] 0.126 | [5] 0.003

C5orf30 (UniProt Q96GV9)
inactive: [3] 0.267 | [9] -0.056 | [4] 0.062 | [6] -0.347 | [7] 0.01 | [8] 0.128

BTBD1 (UniProt Q9H0C5)
inactive: [5] -0.135

BTBD10 isoform 2 (UniProt Q9BSF8)
inactive: [3] -0.017 | [4] 0.035 | [6] -0.048

CA3 (UniProt P07451)
inactive: [9] -0.253 | [5] 0.009

BTN2A1 (UniProt Q7KYR7)
inactive: erlotinib 0.002 | [9] -0.26 | [1] -0.045 | [2] 0.177 | [5] 0.02 | [7] -0.079 | [8] 0.035

C3AR1 (UniProt Q16581)
inactive: [2] -0.471
